Source: the supplement of paper PMC12819154, “High-throughput peptide-centric local stability assay extends protein–ligand identification to membrane proteins, tissues and bacteria” (Nature Structural & Molecular Biology, 2025)
The other results are listed elsewhere or left out. Most entries show no effect beyond the scatter of the controls.

The chains behind the UniProt entries cited, without tags or fusion partners. Where a name states a change or a piece, a line headed by the entry shows the natural chain unless it says otherwise.
UniProt P34927: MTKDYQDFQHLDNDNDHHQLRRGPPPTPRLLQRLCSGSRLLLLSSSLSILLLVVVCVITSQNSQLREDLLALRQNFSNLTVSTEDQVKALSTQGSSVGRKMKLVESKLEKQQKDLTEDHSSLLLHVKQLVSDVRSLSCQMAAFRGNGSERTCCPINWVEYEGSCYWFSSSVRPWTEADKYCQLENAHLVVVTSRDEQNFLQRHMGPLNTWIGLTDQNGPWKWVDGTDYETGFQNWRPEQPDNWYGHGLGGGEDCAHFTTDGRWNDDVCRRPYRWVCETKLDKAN
UniProt P45591, whole entry: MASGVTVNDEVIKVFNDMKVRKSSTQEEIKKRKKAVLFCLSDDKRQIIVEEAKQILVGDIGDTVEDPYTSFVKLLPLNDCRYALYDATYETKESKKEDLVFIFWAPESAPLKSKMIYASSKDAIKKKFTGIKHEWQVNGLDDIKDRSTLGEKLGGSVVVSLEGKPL
UniProt P52431: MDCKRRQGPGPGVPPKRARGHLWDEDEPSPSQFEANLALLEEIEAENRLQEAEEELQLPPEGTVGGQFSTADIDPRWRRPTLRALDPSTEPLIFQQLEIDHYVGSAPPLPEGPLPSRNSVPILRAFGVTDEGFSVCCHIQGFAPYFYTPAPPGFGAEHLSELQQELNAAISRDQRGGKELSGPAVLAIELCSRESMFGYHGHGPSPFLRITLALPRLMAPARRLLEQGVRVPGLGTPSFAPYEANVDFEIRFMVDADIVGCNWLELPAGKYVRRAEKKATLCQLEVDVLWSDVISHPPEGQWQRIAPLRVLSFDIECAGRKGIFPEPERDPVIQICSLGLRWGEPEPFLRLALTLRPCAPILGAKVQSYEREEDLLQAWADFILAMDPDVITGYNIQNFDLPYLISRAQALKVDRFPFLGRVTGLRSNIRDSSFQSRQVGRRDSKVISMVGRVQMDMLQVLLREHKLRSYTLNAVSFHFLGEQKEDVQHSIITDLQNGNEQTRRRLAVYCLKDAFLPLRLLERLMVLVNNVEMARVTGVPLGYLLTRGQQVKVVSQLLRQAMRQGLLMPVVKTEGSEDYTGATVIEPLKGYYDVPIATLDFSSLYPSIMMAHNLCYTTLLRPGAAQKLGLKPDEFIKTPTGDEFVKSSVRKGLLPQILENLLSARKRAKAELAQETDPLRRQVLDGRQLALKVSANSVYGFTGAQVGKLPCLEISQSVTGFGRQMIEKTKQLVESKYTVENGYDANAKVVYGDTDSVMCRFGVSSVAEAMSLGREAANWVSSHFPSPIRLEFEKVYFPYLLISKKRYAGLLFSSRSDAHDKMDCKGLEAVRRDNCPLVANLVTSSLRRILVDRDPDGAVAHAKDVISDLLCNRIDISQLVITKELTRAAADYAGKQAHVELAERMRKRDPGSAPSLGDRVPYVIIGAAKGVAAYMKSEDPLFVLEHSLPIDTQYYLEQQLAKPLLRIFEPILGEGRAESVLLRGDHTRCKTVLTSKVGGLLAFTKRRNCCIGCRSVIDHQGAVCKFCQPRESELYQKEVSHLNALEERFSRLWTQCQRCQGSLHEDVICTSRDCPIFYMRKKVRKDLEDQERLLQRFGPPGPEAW
UniProt P56387: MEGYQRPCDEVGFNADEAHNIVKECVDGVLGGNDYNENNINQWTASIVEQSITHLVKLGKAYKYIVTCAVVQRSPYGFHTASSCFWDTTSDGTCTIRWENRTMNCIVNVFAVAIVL
UniProt P30204: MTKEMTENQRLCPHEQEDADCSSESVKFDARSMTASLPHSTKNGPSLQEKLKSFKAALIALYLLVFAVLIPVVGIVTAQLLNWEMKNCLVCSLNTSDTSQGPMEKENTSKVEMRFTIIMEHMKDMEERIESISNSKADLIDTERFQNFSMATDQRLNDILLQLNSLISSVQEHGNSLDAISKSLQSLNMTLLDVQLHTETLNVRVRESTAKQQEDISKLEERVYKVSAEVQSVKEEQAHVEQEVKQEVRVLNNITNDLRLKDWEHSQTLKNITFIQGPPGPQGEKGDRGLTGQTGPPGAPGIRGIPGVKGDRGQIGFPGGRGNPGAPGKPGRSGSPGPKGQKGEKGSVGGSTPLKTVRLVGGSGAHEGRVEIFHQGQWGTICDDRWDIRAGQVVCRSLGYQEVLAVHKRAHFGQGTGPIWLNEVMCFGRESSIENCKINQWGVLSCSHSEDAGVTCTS
UniProt P56379: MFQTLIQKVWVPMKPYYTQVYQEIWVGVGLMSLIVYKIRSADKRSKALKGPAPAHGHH
UniProt P48776: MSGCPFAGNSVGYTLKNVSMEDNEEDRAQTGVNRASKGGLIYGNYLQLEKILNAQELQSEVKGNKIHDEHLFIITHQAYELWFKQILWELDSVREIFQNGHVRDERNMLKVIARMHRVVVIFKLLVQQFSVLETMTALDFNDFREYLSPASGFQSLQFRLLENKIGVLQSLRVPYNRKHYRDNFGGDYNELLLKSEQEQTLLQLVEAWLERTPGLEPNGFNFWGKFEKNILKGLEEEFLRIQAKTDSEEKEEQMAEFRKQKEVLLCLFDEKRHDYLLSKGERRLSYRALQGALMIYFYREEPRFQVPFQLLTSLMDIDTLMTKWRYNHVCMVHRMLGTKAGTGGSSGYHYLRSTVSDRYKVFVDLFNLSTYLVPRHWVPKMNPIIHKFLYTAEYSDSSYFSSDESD
UniProt P45878: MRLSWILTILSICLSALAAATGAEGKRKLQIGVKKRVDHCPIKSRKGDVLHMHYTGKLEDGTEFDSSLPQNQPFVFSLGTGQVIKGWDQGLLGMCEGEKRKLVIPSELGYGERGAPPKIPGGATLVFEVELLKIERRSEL
UniProt P47739: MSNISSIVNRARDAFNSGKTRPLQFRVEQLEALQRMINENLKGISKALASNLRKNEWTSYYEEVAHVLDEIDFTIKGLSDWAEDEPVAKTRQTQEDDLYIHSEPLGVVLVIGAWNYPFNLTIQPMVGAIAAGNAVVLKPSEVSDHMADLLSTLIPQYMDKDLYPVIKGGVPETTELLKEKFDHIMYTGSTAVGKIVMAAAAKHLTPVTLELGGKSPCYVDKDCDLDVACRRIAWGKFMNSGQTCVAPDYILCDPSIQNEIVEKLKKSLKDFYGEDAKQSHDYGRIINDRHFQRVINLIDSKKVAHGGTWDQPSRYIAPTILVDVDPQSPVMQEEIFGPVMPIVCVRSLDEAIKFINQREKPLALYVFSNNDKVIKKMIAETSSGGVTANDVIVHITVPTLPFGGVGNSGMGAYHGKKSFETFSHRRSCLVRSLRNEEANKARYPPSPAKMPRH
UniProt P32233: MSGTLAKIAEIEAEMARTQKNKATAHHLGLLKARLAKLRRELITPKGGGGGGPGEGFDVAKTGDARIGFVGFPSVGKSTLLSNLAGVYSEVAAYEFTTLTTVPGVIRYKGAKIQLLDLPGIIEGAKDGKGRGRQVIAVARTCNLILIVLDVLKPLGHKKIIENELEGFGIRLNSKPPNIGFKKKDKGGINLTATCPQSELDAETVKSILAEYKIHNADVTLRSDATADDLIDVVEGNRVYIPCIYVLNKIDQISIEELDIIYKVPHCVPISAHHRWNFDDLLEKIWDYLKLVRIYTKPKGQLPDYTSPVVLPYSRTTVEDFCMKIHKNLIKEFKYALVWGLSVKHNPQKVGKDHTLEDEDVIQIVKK
UniProt P34928: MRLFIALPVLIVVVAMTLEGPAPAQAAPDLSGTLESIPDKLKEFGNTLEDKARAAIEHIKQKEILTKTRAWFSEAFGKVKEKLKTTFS
UniProt P35279: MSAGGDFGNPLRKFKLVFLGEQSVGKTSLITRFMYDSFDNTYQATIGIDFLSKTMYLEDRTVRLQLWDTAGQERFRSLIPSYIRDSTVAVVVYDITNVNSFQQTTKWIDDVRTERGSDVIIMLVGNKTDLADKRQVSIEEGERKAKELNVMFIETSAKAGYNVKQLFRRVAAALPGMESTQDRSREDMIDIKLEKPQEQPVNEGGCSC
UniProt P56564: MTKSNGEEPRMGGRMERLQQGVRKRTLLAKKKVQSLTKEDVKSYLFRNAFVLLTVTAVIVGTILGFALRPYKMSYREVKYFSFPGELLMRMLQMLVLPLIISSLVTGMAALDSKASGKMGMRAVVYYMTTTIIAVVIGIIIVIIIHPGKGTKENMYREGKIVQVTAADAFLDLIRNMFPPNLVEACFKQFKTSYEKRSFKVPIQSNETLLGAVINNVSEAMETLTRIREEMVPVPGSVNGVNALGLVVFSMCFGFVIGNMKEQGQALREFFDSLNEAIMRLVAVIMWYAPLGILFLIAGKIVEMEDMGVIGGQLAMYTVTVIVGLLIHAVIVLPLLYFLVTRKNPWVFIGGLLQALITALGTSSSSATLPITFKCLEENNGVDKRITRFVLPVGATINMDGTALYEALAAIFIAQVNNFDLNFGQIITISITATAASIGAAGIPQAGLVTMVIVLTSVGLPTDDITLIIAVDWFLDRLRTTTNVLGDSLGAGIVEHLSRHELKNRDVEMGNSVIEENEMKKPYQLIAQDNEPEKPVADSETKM
UniProt P28661: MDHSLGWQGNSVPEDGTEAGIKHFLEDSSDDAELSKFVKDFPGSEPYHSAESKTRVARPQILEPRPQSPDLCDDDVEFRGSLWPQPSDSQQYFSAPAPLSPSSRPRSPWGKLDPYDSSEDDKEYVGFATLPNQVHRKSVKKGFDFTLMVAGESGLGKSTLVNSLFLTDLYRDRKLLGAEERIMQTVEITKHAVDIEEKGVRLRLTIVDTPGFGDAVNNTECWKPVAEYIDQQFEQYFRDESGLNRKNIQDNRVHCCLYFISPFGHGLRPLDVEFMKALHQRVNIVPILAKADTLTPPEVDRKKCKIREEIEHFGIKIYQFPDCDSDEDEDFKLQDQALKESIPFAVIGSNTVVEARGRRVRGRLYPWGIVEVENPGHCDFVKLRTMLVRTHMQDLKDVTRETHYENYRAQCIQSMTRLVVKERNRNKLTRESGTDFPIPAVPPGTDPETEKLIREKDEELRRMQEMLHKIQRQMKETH
UniProt P45952: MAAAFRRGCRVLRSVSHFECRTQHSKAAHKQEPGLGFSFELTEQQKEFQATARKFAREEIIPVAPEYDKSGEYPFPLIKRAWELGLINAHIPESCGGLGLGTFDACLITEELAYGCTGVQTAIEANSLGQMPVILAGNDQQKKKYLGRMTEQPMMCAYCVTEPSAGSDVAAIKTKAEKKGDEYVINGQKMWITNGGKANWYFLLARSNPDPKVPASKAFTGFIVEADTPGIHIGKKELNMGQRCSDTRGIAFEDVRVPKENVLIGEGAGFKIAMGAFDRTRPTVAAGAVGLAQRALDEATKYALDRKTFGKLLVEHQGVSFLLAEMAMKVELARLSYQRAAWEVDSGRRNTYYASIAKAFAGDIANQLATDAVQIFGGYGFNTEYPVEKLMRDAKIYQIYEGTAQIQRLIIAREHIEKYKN
UniProt P53566, whole entry: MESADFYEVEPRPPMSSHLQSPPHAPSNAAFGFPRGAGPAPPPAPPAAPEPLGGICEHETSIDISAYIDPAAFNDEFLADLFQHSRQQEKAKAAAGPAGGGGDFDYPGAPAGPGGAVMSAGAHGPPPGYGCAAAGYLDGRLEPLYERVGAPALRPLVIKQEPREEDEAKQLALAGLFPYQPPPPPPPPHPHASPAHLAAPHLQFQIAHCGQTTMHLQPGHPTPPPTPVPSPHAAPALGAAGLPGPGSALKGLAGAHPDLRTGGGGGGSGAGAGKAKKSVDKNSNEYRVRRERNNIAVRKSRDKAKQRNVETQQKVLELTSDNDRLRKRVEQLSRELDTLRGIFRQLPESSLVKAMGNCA
UniProt P43883: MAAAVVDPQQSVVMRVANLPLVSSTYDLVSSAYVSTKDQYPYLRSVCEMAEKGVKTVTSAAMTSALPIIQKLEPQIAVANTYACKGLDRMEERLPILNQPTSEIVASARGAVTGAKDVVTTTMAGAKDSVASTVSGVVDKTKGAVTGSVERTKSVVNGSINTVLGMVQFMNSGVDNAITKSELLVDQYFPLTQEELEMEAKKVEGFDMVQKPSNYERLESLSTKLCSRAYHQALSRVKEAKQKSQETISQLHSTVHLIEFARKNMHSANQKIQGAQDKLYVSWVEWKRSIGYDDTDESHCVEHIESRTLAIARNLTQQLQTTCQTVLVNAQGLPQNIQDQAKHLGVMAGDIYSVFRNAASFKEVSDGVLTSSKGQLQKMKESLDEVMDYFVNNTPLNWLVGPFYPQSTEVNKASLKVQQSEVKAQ
UniProt P55104: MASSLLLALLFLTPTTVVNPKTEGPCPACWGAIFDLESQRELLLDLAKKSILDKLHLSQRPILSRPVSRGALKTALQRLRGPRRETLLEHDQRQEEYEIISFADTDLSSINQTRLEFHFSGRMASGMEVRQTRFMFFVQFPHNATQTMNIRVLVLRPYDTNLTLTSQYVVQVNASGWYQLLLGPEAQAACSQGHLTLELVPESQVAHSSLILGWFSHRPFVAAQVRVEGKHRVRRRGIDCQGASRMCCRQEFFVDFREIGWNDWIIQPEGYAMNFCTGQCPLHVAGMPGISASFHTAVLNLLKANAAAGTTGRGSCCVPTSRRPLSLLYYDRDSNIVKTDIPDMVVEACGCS

Each target was assayed with CN[C@@H]1C[C@H]2O[C@@](C)([C@@H]1OC)n1c3ccccc3c3c4c(c5c6ccccc6n2c5c31)C(=O)NC4 [staurosporine] (assay: log2 fold change of pooled soluble protein (PISA), ligand vs vehicle (log2 ratio); higher = more thermally stabilized). Details: ligand concentration: 20 uM; assay format: PISA pool 52.9/55.5/58.6 C.

Target | log2 fold change of pooled soluble protein
UniProt P53612 | -0.0711
UniProt P29533 | 0.0709
UniProt P34927 | -0.0739
UniProt P51175 | 0.0718
UniProt P47911 | -0.114
UniProt P45591 | -0.00555
UniProt P56528 | -0.0752
UniProt P49443 | -0.0917
UniProt P29387 | 0.0652
UniProt P52431 | 0.154
UniProt P35980 | -0.215
UniProt P34914 | 0.0262
UniProt P56387 | -0.0216
UniProt P30204 | 0.417
UniProt P56379 | 0.056
UniProt P48776 | 0.118
UniProt P47857 | 0.0218
UniProt P45878 | 0.392
UniProt P37804 | -0.0285

Target | log2 fold change of pooled soluble protein
UniProt P47739 | -0.523
UniProt P35290 | -0.278
UniProt P32233 | -0.0647
UniProt P47753 | -0.0811
UniProt P34928 | 0.0737
UniProt P35279 | -0.0137
UniProt P35492 | -0.262
UniProt P54103 | 0.179
UniProt P35564 | 0.126
UniProt P56564 | 0.0975
UniProt P51859 | 0.127
UniProt P28661 | -0.00656
UniProt P46735 | -0.385
UniProt P45952 | -0.0814
UniProt P28666 | -0.0915
UniProt P53566 | 0.112
UniProt P43883 | -0.107
UniProt P55104 | 0.131

A portion from further up:
Target | log2 fold change of pooled soluble protein
UniProt P54103 | 0.179
UniProt P35564 | 0.126
